These are yes or no findings as the source states them, for the method shown. Some results given as binding are weak or reduced against the parent protein; the word gives no strength.

Chains of the proteins cited; added tags and fusions are not shown. Residues count along the entry.
UniProt Q99705: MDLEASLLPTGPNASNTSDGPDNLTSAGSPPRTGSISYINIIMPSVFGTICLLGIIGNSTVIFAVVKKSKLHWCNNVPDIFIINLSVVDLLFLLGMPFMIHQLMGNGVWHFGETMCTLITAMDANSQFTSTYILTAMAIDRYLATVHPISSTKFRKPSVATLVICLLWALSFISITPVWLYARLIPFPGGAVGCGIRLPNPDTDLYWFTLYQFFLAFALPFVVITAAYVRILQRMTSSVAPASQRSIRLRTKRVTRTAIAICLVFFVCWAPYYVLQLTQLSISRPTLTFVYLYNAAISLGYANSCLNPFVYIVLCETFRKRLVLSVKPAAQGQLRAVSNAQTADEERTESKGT
UniProt P01127, residues 82-190: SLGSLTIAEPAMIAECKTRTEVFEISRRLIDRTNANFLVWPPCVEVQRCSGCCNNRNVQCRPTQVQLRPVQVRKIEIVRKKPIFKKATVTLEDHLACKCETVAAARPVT

The target of this test is MCHR1 in membrane fractions of NHDF (human (endogenous in NHDF)) (UniProt Q99705). The test is described as follows: far-Western, overlay or dot blot; western ligand blot: NHDF membrane fractions (PDGF-BB 40 ng/ml or vehicle treated) electrophoresed under non-reducing conditions, transferred to nitrocellulose, incubated 1 hour with biotinylated PDGF-BB, detected with streptavidin-HRP; only the binder purified.

For the substance “biotinylated PDGF-BB (from UniProt P01127 82-190) (ligand)”, the binding entry is listed as “binds”.

For the origin of these results see publication PMC8667318.
